Literature values in US20030109571A1, “Thromboxane ligands without blood clotting side effects” (ALLERGAN SALES, INC., priority 1993, published 2003).
Read-outs that look alike come from different tables or passages of the source. At least one structure is not confirmed: it was looked up by name or label, or the drawing left a doubt.

Legend:
Conditions in all cases: cited from earlier work
[1] = tested on: HPRP
[2] = tested on: rabbit PRP
[3] = tested on: HPRP; remark: listed apart in the source

Structure (SMILES): CC1(C)C2C[C@@H]1CC(/C=C/[C@@H](O)COc1ccc(F)cc1)[C@H]2C/C=C\CCCC(=O)O (stereo partly drawn) [Example 8]
- Concentration precipitating irreversible aggregation of HPRP [1]: 0.31 μH

Structure (SMILES): CCCCCC(O)/C=C/C1O[C@H]2CC(CO2)[C@@H]1C/C=C\CCCC(=O)O (stereo partly drawn) [Example 14]
- Aggregation of rabbit PRP relative to TXA2 [2]: 0.001 × TXA2
- Antagonism of the aggregatory effect of TXA2 ([2]; in words): did not antagonize

Structure (SMILES): CCCCCCCCC(O)CNC1C[C@H]2CC([C@@H]1C/C=C\CCCC(=O)O)C2(C)C (stereo partly drawn) [Example 9]
- Inhibition of TXA2 induced aggregation of HPRP ([3]; in words): inhib- ited
- IC50 ([3]; induced by STA2, 9,11-methanepoxy PGH2, AA, collagen, ADP (second phase), read-out: IC50 inhibition of aggregation of HPRP): 110 to 380 nM

Structure (SMILES): CCCCC[C@H](O)/C=C/C1C[C@H]2CC(S2)[C@@H]1C/C=C\CCCC(=O)O (stereo partly drawn) [Example 10]
- IC50 ([1]; read-out: IC50 irreversible aggregation of HPRP): 60 nM
